PubChem BioAssay AID248 (DTP/NCI, 2004)
The list does not hold the whole screen: it gathers tests that were run many times, whatever their T/C, doses with no T/C, and many T/C values between a quarter and a half above the control. Other doses and runs of a compound stand elsewhere. T/C gives the treated animals as a percentage of the vehicle group. Some entries give survivors of the animals treated and no T/C: the source holds a T/C of zero for them, seemingly a mark for toxic or unscored doses. Some survivor counts are full or nearly so, which does not show that the dose was tolerated: survival well below the control is almost never listed, so the zero probably covers shortened survival too. Survivors were counted at the toxicity check, usually on the fifth day, unless a day is given; later deaths do not show. Schedule codes are those of the source, taken here to give the interval after Q, in days (D) or hours (H), and the number of doses after X. Some molecules as drawn cover several salts, stereoisomers or complexes of the source; a dose is that of the sample tested. Counts like (3×) say how often a value occurs here. Some entries were tested several times; the results are listed from low to high. Where survival is the endpoint, this PubChem deposit counts one and a half times the control or more as active, and values a quarter to a half above the control carry no call in these data; other NCI protocols may use other cut-offs. Some schedules carry Z or #; the key to these is not given. Some T/C values are followed by the survivors on the day toxicity was checked, most often the fifth; where none is given, no animal had died by that day.

Tested on: L1210 leukemia ip in BDF1 mice, survival T/C
Assay: NCI In Vivo Anticancer Drug Screen. Data for tumor model L1210 Leukemia (intraperitoneal) in B6D2F1 (BDF1) mice
Settings: T/C endpoint: mean survival time, higher T/C = longer survival
[1] = dose: 64.0 mg/kg/injection, schedule: Q01DX009 (ip), vehicle: Klucel (hydroxypropylcellulose) (HPC)

Cc1c2ccncc2c(C)c2c1[nH]c1ccccc12
T/C (dose: 18.75 mg/kg/injection, schedule: Q04DX003 (ip), vehicle: saline with Tween-80): 146 % of control [9 of 10 alive] | T/C (dose: 18.75 mg/kg/injection, schedule: Q08DX002 (ip), vehicle: steroid suspending solution): 132 % of control | T/C (dose: 18.8 mg/kg/injection, schedule: Q01DX Z (oral), vehicle: carboxymethylcellulose (CMC)): 142 % of control | T/C (dose: 20.0 mg/kg/injection, schedule: Q01DX009 (ip), vehicle: saline): 144 % of control | T/C (dose: 20.0 mg/kg/injection, schedule: Q01DX015 (oral), vehicle: carboxymethylcellulose (CMC)): 125 % of control | T/C (dose: 20.0 mg/kg/injection, schedule: Q04DX003 (ip), vehicle: saline with Tween-80): 146 % of control | T/C (dose: 20.0 mg/kg/injection, schedule: Q## X008 (ip), vehicle: other): 129 % of control | T/C (dose: 25.0 mg/kg/injection, schedule: Q01DX005 (oral), vehicle: saline): 130 % of control | survivor count (dose: 25.0 mg/kg/injection, schedule: Q01DX009 (ip), vehicle: citric acid): 10 of 10 | survivor count (dose: 25.0 mg/kg/injection, schedule: Q01DX009 (ip), vehicle: clinical formulation): 10 of 10 | T/C (dose: 25.0 mg/kg/injection, schedule: Q01DX009 (ip), vehicle: saline with Tween-80): 137 % of control | T/C (dose: 25.0 mg/kg/injection, schedule: Q01DX Z (oral), vehicle: saline): 127 % of control | T/C (dose: 25.0 mg/kg/injection, schedule: Q04DX003 (ip), vehicle: saline with Tween-80): 128, 134, 138, 142, 161 % of control | T/C (dose: 25.0 mg/kg/injection, schedule: Q04DX003 (ip), vehicle: saline): 133 % of control | T/C (dose: 30.0 mg/kg/injection, schedule: Q01DX009 (ip), vehicle: saline): 140 % of control | T/C (dose: 32.0 mg/kg/injection, schedule: Q01DX001 (ip), vehicle: clinical formulation): 140 % of control | T/C (dose: 32.0 mg/kg/injection, schedule: Q01DX001 (ip), vehicle: saline with Tween-80): 126 % of control | T/C (dose: 32.0 mg/kg/injection, schedule: Q01DX009 (ip), vehicle: Klucel (hydroxypropylcellulose) (HPC)): 106 [5 of 6 alive], 138, 157, 164, 166, 168 % of control | survivor count (dose: 32.0 mg/kg/injection, schedule: Q01DX009 (ip), vehicle: clinical formulation): 10 of 10 | T/C (dose: 32.0 mg/kg/injection, schedule: Q01DX009 (ip), vehicle: other, evaluated on day 23): 88 % of control | T/C (dose: 32.0 mg/kg/injection, schedule: Q01DX009 (ip), vehicle: other, evaluated on day 30): 107 and 226 % of control | T/C (dose: 32.0 mg/kg/injection, schedule: Q01DX009 (ip), vehicle: other, evaluated on day 40): 171 % of control | T/C (dose: 32.0 mg/kg/injection, schedule: Q01DX009 (ip), vehicle: saline with Tween-80, evaluated on day 30): 104, 116, 122, 151, 158, 168, 172, 178, 180 [5 of 6 alive], 206 % of control | T/C (dose: 32.0 mg/kg/injection, schedule: Q01DX009 (ip), vehicle: saline with Tween-80, evaluated on day 38): 97 % of control | T/C (dose: 32.0 mg/kg/injection, schedule: Q01DX009 (ip), vehicle: saline with Tween-80, evaluated on day 60): 114, 117, 140 % of control | T/C (dose: 32.0 mg/kg/injection, schedule: Q01DX009 (ip), vehicle: saline, evaluated on day 23): 176 % of control | T/C (dose: 32.0 mg/kg/injection, schedule: Q01DX009 (ip), vehicle: saline, evaluated on day 30): 100, 136, 240 % of control | T/C (dose: 32.0 mg/kg/injection, schedule: Q01DX009 (ip), vehicle: water): 129 % of control | T/C (dose: 32.0 mg/kg/injection, schedule: Q01DX009 (sc), vehicle: clinical formulation): 131 % of control | survivor count (dose: 32.0 mg/kg/injection, schedule: Q03HX008 (ip), vehicle: clinical formulation): 4 of 10 | survivor count (dose: 32.0 mg/kg/injection, schedule: Q03HX016 (ip), vehicle: clinical formulation): 1 of 10 | T/C (dose: 32.0 mg/kg/injection, schedule: Q03HX016 (oral), vehicle: clinical formulation): 134 % of control | survivor count (dose: 32.0 mg/kg/injection, schedule: Q03HX024 (ip), vehicle: acid diluted with saline): 10 of 10 | survivor count (dose: 32.0 mg/kg/injection, schedule: Q03HX024 (ip), vehicle: clinical formulation): 3 of 10 | survivor count (dose: 32.0 mg/kg/injection, schedule: Q03HX024 (oral), vehicle: clinical formulation): 7 of 9 | T/C (dose: 32.0 mg/kg/injection, schedule: Q04DX003 (oral), vehicle: clinical formulation): 128 % of control | T/C (dose: 32.0 mg/kg/injection, schedule: Q08DX002 (ip), vehicle: clinical formulation): 144 % of control | T/C (dose: 32.0 mg/kg/injection, schedule: Q## X003 (ip), vehicle: other): 139 % of control | T/C (dose: 32.0 mg/kg/injection, schedule: Q## X024 (ip), vehicle: other): 144 % of control | T/C (dose: 37.5 mg/kg/injection, schedule: Q01DX001 (ip), vehicle: other): 132, 140 [9 of 10 alive], 141, 145 % of control [9 of 10 alive] | T/C (dose: 37.5 mg/kg/injection, schedule: Q01DX001 (ip), vehicle: saline): 136 % of control | survivor count (dose: 37.5 mg/kg/injection, schedule: Q01DX001 (oral), vehicle: other): 4 of 10 | T/C (dose: 37.5 mg/kg/injection, schedule: Q01DX001 (sc), vehicle: other): 128 % of control [9 of 10 alive] | T/C (dose: 37.5 mg/kg/injection, schedule: Q01DX009 (ip), vehicle: Klucel (hydroxypropylcellulose) (HPC)): 130 % of control [5 of 6 alive] | survivor count (dose: 37.5 mg/kg/injection, schedule: Q03HX008 (ip), vehicle: other): 0 of 8 | survivor count (dose: 37.5 mg/kg/injection, schedule: Q03HX008 (ip), vehicle: steroid suspending solution): 7 of 8 | survivor count (dose: 37.5 mg/kg/injection, schedule: Q03HX016 (ip), vehicle: other): 0 of 8 | survivor count (dose: 37.5 mg/kg/injection, schedule: Q03HX016 (ip), vehicle: steroid suspending solution): 8 of 8 | T/C (dose: 37.5 mg/kg/injection, schedule: Q04DX003 (ip), vehicle: Klucel (hydroxypropylcellulose) (HPC), evaluated on day 5): 155 and 159 % of control | T/C (dose: 37.5 mg/kg/injection, schedule: Q04DX003 (ip), vehicle: Klucel (hydroxypropylcellulose) (HPC), evaluated on day 30): 164 % of control | T/C (dose: 37.5 mg/kg/injection, schedule: Q04DX003 (ip), vehicle: Klucel (hydroxypropylcellulose) (HPC), evaluated on day 60): 147, 155, 159 (2×), 211 % of control | T/C (dose: 37.5 mg/kg/injection, schedule: Q04DX003 (ip), vehicle: water): 133 % of control | T/C (dose: 40.0 mg/kg/injection, schedule: Q01DX001 (ip), vehicle: acid diluted with saline): 129 % of control | T/C (dose: 40.0 mg/kg/injection, schedule: Q01DX001 (ip), vehicle: other): 125 % of control | T/C (dose: 40.0 mg/kg/injection, schedule: Q01DX009 (oral), vehicle: carboxymethylcellulose (CMC)): 149 % of control | T/C (dose: 40.0 mg/kg/injection, schedule: Q01DX015 (oral), vehicle: carboxymethylcellulose (CMC)): 130 % of control | survivor count (dose: 40.0 mg/kg/injection, schedule: Q03HX008 (ip), vehicle: acid diluted with saline): 10 of 10 | T/C (dose: 40.0 mg/kg/injection, schedule: Q04DX003 (ip), vehicle: saline with Tween-80): 130 and 135 % of control | T/C (dose: 40.0 mg/kg/injection, schedule: Q04DX009 (ip), vehicle: Klucel (hydroxypropylcellulose) (HPC)): 130 % of control | T/C (dose: 40.0 mg/kg/injection, schedule: Q## X008 (ip), vehicle: other): 142 % of control | T/C (dose: 44.0 mg/kg/injection, schedule: Q01DX009 (ip), vehicle: saline): 142 % of control | T/C (dose: 50.0 mg/kg/injection, schedule: Q01DX001 (ip), vehicle: saline): 125 % of control | T/C (dose: 50.0 mg/kg/injection, schedule: Q01DX001 (oral), vehicle: saline with Tween-80): 128 and 140 % of control | T/C (dose: 50.0 mg/kg/injection, schedule: Q01DX001 (oral), vehicle: water): 125 % of control | T/C (dose: 50.0 mg/kg/injection, schedule: Q01DX005 (oral), vehicle: saline): 139 % of control | survivor count (dose: 50.0 mg/kg/injection, schedule: Q01DX009 (ip), vehicle: citric acid): 8 of 10 and 10 of 10 | survivor count (dose: 50.0 mg/kg/injection, schedule: Q01DX009 (ip), vehicle: clinical formulation): 9 of 10 and 10 of 10 | T/C (dose: 50.0 mg/kg/injection, schedule: Q01DX Z (ip), vehicle: saline): 143 % of control | T/C (dose: 50.0 mg/kg/injection, schedule: Q01DX Z (oral), vehicle: saline): 130 % of control | T/C (dose: 50.0 mg/kg/injection, schedule: Q04DX003 (ip), vehicle: citric acid): 130 % of control | T/C (dose: 50.0 mg/kg/injection, schedule: Q04DX003 (ip), vehicle: clinical formulation): 145 % of control | T/C (dose: 50.0 mg/kg/injection, schedule: Q04DX003 (ip), vehicle: saline with Tween-80): 132, 152, 154, 157, 185 % of control | T/C (dose: 50.0 mg/kg/injection, schedule: Q04DX003 (ip), vehicle: saline): 145 % of control | T/C (dose: 50.0 mg/kg/injection, schedule: Q04DX003 (oral), vehicle: saline): 147 % of control | T/C [1]: 105, 107 [4 of 6 alive], 115, 134 % of control | survivor count [1]: 6 of 6 | survivor count (dose: 64.0 mg/kg/injection, schedule: Q01DX009 (ip), vehicle: clinical formulation): 5 of 10 | T/C (dose: 64.0 mg/kg/injection, schedule: Q01DX009 (ip), vehicle: other, evaluated on day 30): 115 % of control | T/C (dose: 64.0 mg/kg/injection, schedule: Q01DX009 (ip), vehicle: other, evaluated on day 40): 184 % of control | survivor count (dose: 64.0 mg/kg/injection, schedule: Q01DX009 (ip), vehicle: other): 10 of 10 (2×) | T/C (dose: 64.0 mg/kg/injection, schedule: Q01DX009 (ip), vehicle: saline with Tween-80, evaluated on day 30): 86, 88 [5 of 6 alive], 94, 103, 108, 109, 116, 124 % of control | T/C (dose: 64.0 mg/kg/injection, schedule: Q01DX009 (ip), vehicle: saline with Tween-80, evaluated on day 60): 101 and 107 % of control [9 of 10 alive] | survivor count (dose: 64.0 mg/kg/injection, schedule: Q01DX009 (ip), vehicle: saline with Tween-80): 6 of 6 | T/C (dose: 64.0 mg/kg/injection, schedule: Q01DX009 (ip), vehicle: saline, evaluated on day 23): 101 % of control | T/C (dose: 64.0 mg/kg/injection, schedule: Q01DX009 (ip), vehicle: saline, evaluated on day 30): 141 % of control [9 of 10 alive] | survivor count (dose: 64.0 mg/kg/injection, schedule: Q01DX009 (ip), vehicle: saline): 4 of 6
